PubChem BioAssay AID652272 | Drosophila RNAi Screening Center | 2013

- Test: 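Finding fly genes that regulate Hedgehog signal transduction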 (primary screen)
- System: Drosophila clone 8 (Cl8) cells
- Knock-down reagent: long dsRNA against Drosophila genes
- Detection: 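Firefly light from a Hedgehog-responsive ptc promoter reporter and Renilla reference light, both read on a plate reader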
- Reading the numbers: firefly Hh reporter signal: higher = more ptc reporter light; Renilla reference signal: higher = more Renilla control light
- Hit rule: 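Called a hit if the two-replicate mean z-score lies below -2 or above +3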
- Calls: active = hit: reporter lowered or raised; inactive = not a hit
The deposit covers about 21,000 reagents; this is a random part of those that have a named target and a result. Over the whole deposit, 503 (2.4%) got an active call. 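Raw plate light values, not normalised; calls rest on replicate z-scores that were not deposited; hits include reporter decreases as well as increases.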 The numbers tell different reagents against one gene apart. Not stated in the record: the amount of reagent, the time to read-out.

| target | reagent no. | firefly Hh reporter signal, replicate 1 | firefly Hh reporter signal, replicate 2 | firefly Hh reporter signal, replicate 3 | Renilla reference signal, replicate 1 | Renilla reference signal, replicate 2 | call |
| --- | --- | --- | --- | --- | --- | --- | --- |
| scu | 1 | 67968 | 2.40e5 | – | 1528 | 8432 | inactive |
| CtsL3 | 1 | 1.59e5 | 96723 | – | 5513 | 3669 | inactive |
| Vha14-1 | 1 | 98100 | 39971 | – | 2541 | 1926 | inactive |
| CG8245 | 1 | 1.26e5 | 95415 | – | 2324 | 7524 | inactive |
| CG2736 | 1 | 1.08e5 | 99297 | – | 4752 | 3901 | inactive |
| mmm | 1 | 52695 | 69825 | – | 6295 | 4940 | inactive |
| CG7484 | 1 | 81991 | – | – | 3440 | 2455 | inactive |
| CG8243 | 1 | 1.53e5 | 94941 | – | 3625 | 8364 | inactive |
| CG10510 | 1 | 1.13e5 | 1.07e5 | – | 4257 | 3925 | inactive |
| CG13599 | 1 | 4.65e5 | 86896 | – | 22884 | 2968 | inactive |
| mAcon2 | 1 | 60648 | 1.22e5 | – | 1910 | 3601 | inactive |
| prtp | 1 | 1.42e5 | 5.99e5 | 1.07e5 | 3321 | 5939 | inactive |
| CG5793 | 1 | 6.57e5 | 1.20e5 | – | 43202 | 743 | inactive |
| CG2898 | 1 | 1.30e5 | 4.18e5 | – | 4512 | 14370 | inactive |
| CG42458 | 1 | 1.01e5 | 2.22e5 | – | 2530 | 8593 | inactive |
| CG42458 | 2 | 27787 | 27160 | – | 1936 | 1537 | active |
| Lrpprc2 | 1 | 81085 | 93431 | – | 1613 | 3241 | inactive |
| IFT46 | 1 | 84085 | 59808 | – | 1778 | 5645 | inactive |
| CG8476 | 1 | 70736 | 84440 | – | 2164 | 2169 | inactive |
| Gsc | 1 | 97337 | 84517 | – | 2562 | 2058 | inactive |
| CG13318 | 1 | 1.13e5 | 1.41e5 | – | 4364 | 4166 | inactive |
| Twdlbeta | 1 | 87104 | 77224 | – | 2608 | 5450 | inactive |
| ft | 1 | 1.19e5 | 1.03e5 | – | 5387 | 3938 | inactive |
| jagn | 1 | 2.06e5 | 1.32e5 | – | 7287 | 5393 | inactive |
| Blos4 | 1 | 94038 | 73697 | 77417 | 8041 | 6672 | inactive |
| tll | 1 | 94169 | 1.48e5 | – | 2426 | 6267 | inactive |
| amos | 1 | 94161 | 61952 | – | 1939 | 5434 | inactive |
| fd96Ca | 1 | 4.96e5 | 69413 | – | 24713 | 2193 | inactive |
| CG33099 | 1 | 1.03e5 | 1.25e5 | – | 4106 | 4962 | inactive |
| Cyp6d4 | 1 | 1.27e5 | 1.11e5 | – | 6024 | 4721 | inactive |
| CG15912 | 1 | 86083 | 2.35e5 | – | 3419 | 8241 | inactive |
| speck | 1 | 1.17e5 | 49114 | – | 4306 | 2135 | inactive |
| mRpS18B | 1 | 84074 | 60861 | – | 3500 | 2107 | inactive |
| CG13050 | 1 | 1.29e5 | – | – | 5688 | 3852 | inactive |
| gzl | 1 | 1.41e5 | 1.08e5 | – | 5408 | 4265 | inactive |
| Jon65Ai | 1 | 63344 | 73912 | – | 7498 | 5833 | inactive |
| cbc | 1 | 96626 | 75408 | – | 3245 | 3766 | inactive |
| CG9970 | 1 | 74487 | 41593 | – | 2674 | 3174 | inactive |
| AnxB9 | 1 | 1.16e5 | 68742 | – | 4640 | 3213 | inactive |
